Data: paper PMC5691159 (Nature Communications, 2017)

What was measured:
[1] = molecular target: T1, recombinant PfRhopH3-C protein (aa 617–865) with C-terminal hexa-Histidine tag (P. falciparum) (UniProt Q8I395); experiment: ELISA; bait protein coated overnight at 200 ng in carbonate/bicarbonate buffer pH 9.6; prey protein 100, 200, 400, 800 ng in 100 µl binding buffer (50 mM HEPES, 250 mM potassium acetate, 5 mM magnesium acetate, pH 8.0), 1 h at 37 °C; prey detected by antibody; both purified
T1 sequence: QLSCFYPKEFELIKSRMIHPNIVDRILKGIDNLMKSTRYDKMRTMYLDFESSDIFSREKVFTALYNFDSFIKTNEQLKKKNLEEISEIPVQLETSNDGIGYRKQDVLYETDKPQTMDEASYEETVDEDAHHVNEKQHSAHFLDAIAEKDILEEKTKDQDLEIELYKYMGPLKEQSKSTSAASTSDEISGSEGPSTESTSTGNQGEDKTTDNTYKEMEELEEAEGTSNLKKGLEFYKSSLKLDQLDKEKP

[2] = molecular target: T1, recombinant PfRhopH3-C protein (aa 617–865) with C-terminal hexa-Histidine tag (P. falciparum); experiment: far-Western, overlay or dot blot; bait protein (2 µg) run on 12% SDS-PAGE, transferred to PVDF, denatured and renatured; prey protein 3 µg/mL in binding buffer (100 mM NaCl, 20 mM Tris pH 7.6, 0.5 mM EDTA, 10% glycerol, 0.1% Tween-20, 2% skim milk, 1 mM DTT), 2 h at RT; both purified
[3] = molecular target: recombinant Cyclophilin B (Sino Biological) (human); experiment: ELISA; ELISA-based inhibition assay: Cyclophilin B coated wells incubated with different concentrations of recombinant CDP3, then binding of the partner; both purified
[4] = molecular target: recombinant Cyclophilin B (Sino Biological) (human); experiment: ELISA; ELISA-based inhibition assay with CsA as inhibitor; both purified
[5] = molecular target: recombinant Cyclophilin B (Sino Biological) (human); experiment: ELISA; bait protein coated overnight at 200 ng in carbonate/bicarbonate buffer pH 9.6; prey protein 100, 200, 400, 800 ng in 100 µl binding buffer (50 mM HEPES, 250 mM potassium acetate, 5 mM magnesium acetate, pH 8.0), 1 h at 37 °C; prey detected by antibody; both purified
[6] = molecular target: recombinant Cyclophilin B (Sino Biological) (human); experiment: co-IP; Pierce Co-IP kit: antibody against the bait protein immobilised on coupling resin; mixture of bait and prey (PfRhopH3-C) proteins, 8 µg each, up to 4 h at 4 °C; prey detected by western blot; both purified

Measured: binding

recombinant Cyclophilin B (Sino Biological) (human)
binds: [1] | [2]

B1: recombinant PfRhopH3-C protein (aa 617–865) with C-terminal hexa-Histidine tag (domain or fragment)
chain: T1 sequence
binds: [3] | [4] | [5] | [6]

These are yes or no findings as the source states them, for the method shown. Binding calls can cover weak binding; strength is not graded here. Where a sequence is shown, tags or fusion partners need not be part of it. For part of these data: In cells and extracts the contact can be indirect.
